Our source for the TEAD-luciferase reporter activity values is the supplement of paper PMC10735217.

The structures appear in SMILES notation. The list shows a part of the results. Repeats in this data set agree poorly, so a single value says little.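 Human kidney-derived cells stably carry a construct in which eight TEAD-binding elements drive luciferase, measured by luminescence in a drug-repurposing library screen. A hit is any compound whose signal exceeds the plate mean by more than five robust Z scores.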

This experiment has as its system HEK293A TEAD-LUC reporter. Description: TEAD-luciferase reporter activity (YAP activation), robust Z score vs plate; higher = stronger YAP/TEAD activation. Conditions: 24 h.

`CCCCc1nc2cccnc2n1Cc1ccc(-c2ccccc2-c2nnn[nH]2)cc1`: the TEAD-luciferase reporter activity was inactive: -0.786 (compound concentration: 200 nM), inactive: -1.51 (compound concentration: 2 uM) and inactive: 0.221 (compound concentration: 10 uM).
`CC(C)OP(=O)(OC(C)C)C(Cc1cc(C(C)(C)C)c(O)c(C(C)(C)C)c1)P(=O)(OC(C)C)OC(C)C`: the TEAD-luciferase reporter activity by setting is: (compound concentration: 200 nM) inactive: -0.635; (compound concentration: 10 uM) inactive: 0.103.
In the case of `CC(C)OP(=O)(OC(C)C)C(Cc1cc(C(C)(C)C)c(O)c(C(C)(C)C)c1)P(=O)(OC(C)C)OC(C)C` [Apomine], the TEAD-luciferase reporter activity (compound concentration: 2 uM) is inactive: 1.46.
Take `O=C(c1ccc2c(c1)OCO2)N1CCC(N2CCOC2=O)CC1`: the TEAD-luciferase reporter activity runs as follows: (compound concentration: 200 nM) inactive: -0.551; (compound concentration: 10 uM) inactive: 1.78.
As to `Cc1ccccc1C(=O)Nc1ccc(C(=O)N2CCCC(N(C)C)c3ccccc32)cc1` (configuration not stated) [mozavaptan], the TEAD-luciferase reporter activity is inactive: -0.225 (compound concentration: 200 nM), inactive: -0.549 (compound concentration: 2 uM) and inactive: -0.753 (compound concentration: 10 uM).
Take `CC1c2cccc(O)c2C(=O)C2=C(O)C3(O)C(=O)C(C(N)=O)=C(O)C(N(C)C)C3C(O)C21` (configuration not stated) [doxycycline, MiddleBrook]: the TEAD-luciferase reporter activity runs as follows: (compound concentration: 200 nM) inactive: -1.33; (compound concentration: 2 uM) inactive: 0.245; (compound concentration: 10 uM) inactive: -1.3.
As to `O=C(O)C1Cc2c(c(Cl)cc3c(-c4ccccc4)noc23)O1` (configuration not stated), the TEAD-luciferase reporter activity reads like this: (compound concentration: 200 nM) inactive: 1.3; (compound concentration: 2 uM) inactive: -0.393; (compound concentration: 10 uM) inactive: 3.49.
As to `CC(C)c1ccc(CN2CCN(C(c3ccc(F)cc3)c3ccc(F)cc3)CC2)c(=O)c(NCCO)c1`, the TEAD-luciferase reporter activity was inactive: -1.09 (compound concentration: 200 nM), inactive: -1.62 (compound concentration: 2 uM) and inactive: 0.0853 (compound concentration: 10 uM).
`COc1ccc2c(c1)c(CC(=O)Oc1ccc(NC(C)=O)cc1)c(C)n2C(=O)c1ccc(Cl)cc1`: the TEAD-luciferase reporter activity reads like this: (compound concentration: 200 nM) inactive: -1.89; (compound concentration: 2 uM) inactive: 0.139; (compound concentration: 10 uM) inactive: -0.708.
Taken in the same sequence, the figures for `CC1CC2Oc3ccc(Cl)cc3C(=O)N2O1` (configuration not stated) were inactive: -0.823, inactive: 0.633 and inactive: -0.263.
Taken in the same sequence, the figures for `N#C/C(=C1/SCC(c2ccccc2Cl)S1)n1ccnc1` (configuration not stated) [lanoconazole] were inactive: -1.12, inactive: -2.39 and inactive: 0.241.
`CC(=O)N1Cc2ccccc2OC2(CCN(C(=O)Cc3ccc(O)cc3)CC2)C1`: the TEAD-luciferase reporter activity runs as follows: (compound concentration: 200 nM) inactive: -1.06; (compound concentration: 10 uM) inactive: -0.14.
Take `COc1cc(CC(=O)NN(c2ccc(Cc3ccccc3)cc2)c2c(C)cccc2N2CCCCC2)c(Br)cc1C(=O)O`: the TEAD-luciferase reporter activity by setting is: (compound concentration: 200 nM) inactive: -0.711; (compound concentration: 2 uM) inactive: 0.307; (compound concentration: 10 uM) inactive: -0.0754.
For the molecule `F[C@H]1C[C@](c2ccc(Cl)cc2)(c2nnc(C3CC3)n2C2CC2)C1`, the TEAD-luciferase reporter activity is inactive: 0.977 (compound concentration: 200 nM), inactive: 0.0603 (compound concentration: 2 uM) and inactive: -0.697 (compound concentration: 10 uM).
Taken in the same sequence, the figures for `O=c1[nH]c(=O)c2ccccc2o1` were inactive: -0.96, inactive: -2.19 and inactive: -0.307.
For the molecule `OC[C@H]1O[C@@H](n2cnc3c(N[C@H]4CCC[C@@H]4O)ncnc32)[C@H](O)[C@@H]1O`, the TEAD-luciferase reporter activity was inactive: -1.05 (compound concentration: 200 nM), inactive: -1.68 (compound concentration: 2 uM) and inactive: 3.2 (compound concentration: 10 uM).
For `CCCCCOC(=O)Nc1nc(=O)n([C@@H]2O[C@H](C)[C@@H](O)[C@H]2O)cc1F` [Capecitabine], the TEAD-luciferase reporter activity (compound concentration: 200 nM) is inactive: 0.177 and the TEAD-luciferase reporter activity (compound concentration: 10 uM) was inactive: -0.567.
Regarding `CCCCCOC(=O)Nc1nc(=O)n([C@@H]2O[C@H](C)[C@@H](O)[C@H]2O)cc1F` [capecitabine], the TEAD-luciferase reporter activity (compound concentration: 2 uM) is inactive: -1.62.
In the case of `CN1C(=O)CC[C@]2(C)[C@H]3CC[C@]4(C)[C@@H](C(=O)O)CC[C@H]4[C@@H]3CC[C@@H]12`, the TEAD-luciferase reporter activity reads like this: (compound concentration: 200 nM) inactive: -0.42; (compound concentration: 2 uM) inactive: 0.24; (compound concentration: 10 uM) inactive: -0.345.
Take `CC1(C)S[C@@H]2[C@H](N3C(=O)[C@@H](c4ccccc4)NC3(C)C)C(=O)N2[C@H]1C(=O)O`: the TEAD-luciferase reporter activity is inactive: 1.09 (compound concentration: 200 nM), inactive: -0.113 (compound concentration: 2 uM) and inactive: -0.686 (compound concentration: 10 uM).
For `C=CC(N)CCC(=O)O` (configuration not stated) [vigabatrin], the TEAD-luciferase reporter activity (compound concentration: 200 nM) was inactive: 3.73, the TEAD-luciferase reporter activity (compound concentration: 2 uM) was active: 5.46 and the TEAD-luciferase reporter activity (compound concentration: 10 uM) is inactive: -1.05.
Consider `CCOC(=O)C(C)NC(=O)c1cccc(N(Cc2cccnc2)c2ccc(OC)c(OC3CCCC3)c2)c1` (configuration not stated), for which the TEAD-luciferase reporter activity reads like this: (compound concentration: 200 nM) inactive: 2.16; (compound concentration: 2 uM) inactive: -1.27; (compound concentration: 10 uM) inactive: -0.593.
Take `O=C(NCCCn1ncccc1=O)C1COc2ccccc2O1` (configuration not stated): the TEAD-luciferase reporter activity runs as follows: (compound concentration: 200 nM) inactive: 0.291; (compound concentration: 2 uM) inactive: 0.127; (compound concentration: 10 uM) inactive: -2.66.
Take `CN(C)CCOC(C)(c1ccccc1)c1ccc(Cl)cc1` (configuration not stated): the TEAD-luciferase reporter activity is inactive: -0.278 (compound concentration: 200 nM), inactive: 0.579 (compound concentration: 2 uM) and inactive: -0.556 (compound concentration: 10 uM).
Turning to `O=C(O)Cc1ccccc1Nc1c(Cl)cccc1Cl`, the TEAD-luciferase reporter activity was inactive: -0.545 (compound concentration: 200 nM) and inactive: -0.695 (compound concentration: 10 uM).
As to `O=C(O)Cc1ccccc1Nc1c(Cl)cccc1Cl` [diclofenac gel], the TEAD-luciferase reporter activity (compound concentration: 2 uM) is inactive: -1.83.
As for `COc1c(NC(=O)C(=O)c2ccc(OCCN3CCOCC3)c3ccccc23)cc(C(C)(C)C)cc1NS(C)(=O)=O`, the TEAD-luciferase reporter activity was inactive: -1.26 (compound concentration: 200 nM), inactive: -0.39 (compound concentration: 2 uM) and inactive: 0.0229 (compound concentration: 10 uM).
Take `O=C(NCCN1CCN=C1c1ccncc1)Nc1ccc(C(=O)O)cc1`: the TEAD-luciferase reporter activity was inactive: 0.188 (compound concentration: 200 nM) and inactive: 0.707 (compound concentration: 10 uM).
